Measurements as given in PubChem BioAssay AID1487 (National Center for Advancing Translational Sciences (NCATS), 2009).
The list shows a part of the results. Shown are side measurements of this screen, not its main read-out; they come without a call. The list favours compounds with an active or inconclusive main result. The note in brackets gives the kind of curve behind each potency; many fits are weak.

Test: qHTS Assay for Modulators of Lamin A Splicing
Settings: HeLa LMNA splicing GFP/RFP minigene ratio, 48 h
Method in brief: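 S3 HeLa cells stably expressing lamin A-EGFP splicing minigene plus DsRed2, 600 cells/well, 48 h compound exposure at 37C. Laser-scanning cytometry; analysed as GFP (500-530 nm)/RFP (575-640 nm) total intensity ratio; 0.5% DMSO vehicle.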

[1] = measured here: RFP viability control channel
[2] = measured here: GFP splicing reporter channel

Structure (SMILES) | AC50 [1] | AC50 [2]
CCOC(=O)Cc1cc(=O)[nH]c(/N=C(\N)Nc2ccc(C)c(C)c2)n1 | 14.1 µM [falling, partial curve, poor fit] | –
CCCSc1ncnc2sc(C)c(C)c12 | 35.5 µM [falling, single point] | –
Cc1ccc(-n2ncc3c(N4CCC(C(N)=O)CC4)ncnc32)cc1 | 5.01 µM [falling, full curve] | 7.08 µM [falling, full curve, poor fit]
CCC1CN(C(=O)Nc2cccc3c2CCCC3)c2cc(Cl)ccc2O1 (stereo unspecified) | 11.2 µM [rising, single point] | –
CC1(C)CC(Nc2ccc(Nc3ccccc3)cc2)CC(C)(C)N1 | 35.5 µM [falling, partial curve] | 10 µM [falling, partial curve, poor fit]
CCn1c(N)c(C(=O)N2CCOCC2)sc1=S | 0.0126 µM [falling, full curve, poor fit] | –
Fc1ccc(NC(=S)N2CCN(C/C=C/c3ccccc3)CC2)c(F)c1 | 0.891 µM [falling, partial curve, poor fit] | 0.794 µM [falling, full curve, poor fit]
Cn1c(NC(=O)c2cccc(C(F)(F)F)c2)cc(=O)n(C)c1=O | 11.2 µM [rising, partial curve] | –
CN1CCc2nc(SCC(=O)Nc3ccc(F)cc3)c(C#N)cc2C1 | 31.6 µM [rising, single point] | –
CCOC(=O)c1sc(=S)n(Cc2ccccc2)c1N | 20 µM [rising, single point] | 14.1 µM [rising, partial curve, poor fit]
COc1c2ccoc2nc2c(OC)cccc12 | – | 2 µM [rising, partial curve, poor fit]
CCCCNC(=O)/C=C/c1ccc(S(=O)(=O)Nc2ccc(OC)cc2)cc1 | – | 5.01 µM [falling, full curve, poor fit]
Cc1occc1C(=O)N/N=C/c1ccccn1 | – | 22.4 µM [falling, single point]
O=C(Nc1ccc(Oc2ccc(S(=O)(=O)N3CCOCC3)cn2)cc1)c1ccco1 | 15.8 µM [rising, single point] | 11.2 µM [rising, partial curve, poor fit]
CCOc1ccc(-c2cn(-c3ccc(C)cc3)c(SCC(=O)Nc3ccc(C)cc3)n2)cc1 | 11.2 µM [rising, partial curve, poor fit] | 20 µM [rising, partial curve, poor fit]
